US7026282B1, “Peptide antagonists of the human urokinase receptor and method for selecting them” (Cancerforskningsfonden AF 1989 (Fonden Til Fremme AF …, priority 1998, dated 2006)
Part of at least one peptide drawing is inferred or uncertain, most often the ends. Positions of bridges follow the written chain, without caps; N, C: chain ends. Non-standard residues stand in square brackets, D forms with d. Residues, ends and D or L forms follow the SMILES beside them. Chains are numbered I, II in the order given. Cha = N[C@@H](CC1CCCCC1)C(=O)O; βAla = NCCC(=O)O

The chains behind the UniProt entries cited, without tags or fusion partners. Residues count along the entry.
UniProt Q03405, 23-305 limits assumed: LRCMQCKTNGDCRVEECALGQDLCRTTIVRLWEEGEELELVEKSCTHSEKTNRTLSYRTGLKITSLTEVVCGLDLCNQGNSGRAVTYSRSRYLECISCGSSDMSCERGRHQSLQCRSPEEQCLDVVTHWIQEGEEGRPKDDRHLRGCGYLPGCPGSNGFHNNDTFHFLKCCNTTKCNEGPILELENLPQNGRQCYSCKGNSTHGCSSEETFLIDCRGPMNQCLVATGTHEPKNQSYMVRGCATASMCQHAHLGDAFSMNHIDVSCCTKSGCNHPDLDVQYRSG

Target: T1, neuramimidase-treated human suPAR (soluble recombinant uPAR) (Homo sapiens, UniProt Q03405)
T1 construct: A soluble recombinant variant of human uPAR (suPAR) was expressed in Chinese hamster ovary (dhfr) cells; made in house; host or cells: Chinese hamster ovary (dhfr) cells
Test: Biacore Binding Assay (surface plasmon resonance), ligand binding to immobilised suPAR
Details: relative to the Growth Factor Domain of uPA (GFD = 1.0)
Protocol: Association rate constants (kass), dissociation rate constants (kdiss) and equilibrium binding constants (kd) for various synthetic peptides and receptor binding derivatives of human uPA were determined by surface plasmon resonance (R. Karlsson et al. (1991) J. Immunol. Meths. 145:229–240) using a BIAcore2000™ instrument (Pharmacia Biosensor, Uppsala, Sweden). Due to the low isoelectric point of uPAR (pI≈4.5) terminal sialic acid residues were removed from its N-linked carbohydrates to facilitate chemical immobilisation on the sensor chip. This was accomplished by incubating purified suPAR (1 mg/ml in 50 mM phosphate, 150 mM NaCl, pH 7.4) with 5 μg/ml neuramimidase for 4 hours at 37° C. […]
Sensorgrams (RU versus time) were recorded (FIG. 2) at a flow rate of 10 μl per min at 5° C. using several different concentrations of the ligand (synthetic peptides, uPA, the amino-terminal fragment (ATF) of uPA, or the growth factor domain (GFD) of uPA) in the range of 10 to 1000 nM in running buffer (10 mM HEPES, 150 mM NaCl, 3 mM EDTA (pH 7.4) including 0.005% surfactant P-20). […] The sensorgrams obtained were analysed by non-linear least squares fitting using BIAevaluation 2.0 software (Pharmacia Biosensor, Uppsala, Sweden) assuming single-site association and dissociation models. […]

Compound: CC(C)C[C@H](NC(=O)[C@H](Cc1ccc(O)cc1)NC(=O)[C@@H](CCCNC(=N)N)NC(=O)[C@@H](CO)NC(=O)[C@H](Cc1ccccc1)NC(=O)[C@H](CC1CCCCC1)NC(=O)[C@@H](N)CC(=O)O)C(=O)N[C@@H](Cc1c[nH]c2ccccc12)C(=O)N[C@@H](CO)C(=O)NCC(=O)NCCCC[C@H](NC(=O)CCNC(=O)CNC(=O)[C@H](CO)NC(=O)[C@H](Cc1c[nH]c2ccccc12)NC(=O)[C@H](CC(C)C)NC(=O)[C@H](Cc1ccc(O)cc1)NC(=O)[C@@H](CCCNC(=N)N)NC(=O)[C@@H](CO)NC(=O)[C@H](Cc1ccccc1)NC(=O)[C@H](CC1CCCCC1)NC(=O)[C@@H](N)CC(=O)O)C(=O)O [AE120, α-[DChaFsrYLWSGβA]-ε-[DChaFsrYLWSG]-K] (I: H-D[Cha]F[dS][dR]YLWSG[βAla]K-OH / II: H-D[Cha]F[dS][dR]YLWSG; amide I:12-II:C)
- Relative kdiss: 0.21
